# From the supplement of paper PMC8728848
# This is one part of the list.
# Legend:
# Assay in all cases: glycan array binding signal (z-score within array); higher = stronger binding
# Conditions in all cases: glycan notation: IUPAC condensed, linker removed
# [1] = biological target: Neu5Ac(a2-6)GlcNAc(b1-4)GlcNAc(b1-4)GlcNAc
# Outline: (§1)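 Arrays were curated from the Consortium for Functional Glycomics database, 3228 in total, and kept only where the protein sequence was available. Binding is expressed as a within-array Z-score. This score was averaged across arrays of the same protein sequence at different concentrations or buffers and across linkers, and negative values can be read as non-binding.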
# Neu5Ac(a2-8)Neu5Ac = biological target: Neu5Ac(a2-8)Neu5Ac
# Outline: as §1
# [2] = biological target: Neu5Ac(a2-8)Neu5Ac(a2-3)Gal(b1-3)GalNAc(b1-4)[Neu5Ac(a2-3)]Gal(b1-4)Glc
# Outline: as §1
# [3] = biological target: Neu5Ac(a2-8)Neu5Ac(a2-3)Gal(b1-3)GalNAc(b1-4)[Neu5Ac(a2-8)Neu5Ac(a2-3)]Gal(b1-4)Glc
# Outline: as §1
# [4] = biological target: Neu5Ac(a2-8)Neu5Ac(a2-3)Gal(b1-4)Glc
# Outline: as §1
# [5] = biological target: Neu5Ac(a2-8)Neu5Ac(a2-3)Gal(b1-4)GlcNAc
# Outline: as §1
# [6] = biological target: Neu5Ac(a2-8)Neu5Ac(a2-3)[Gal(b1-3)GalNAc(b1-4)]Gal(b1-4)Glc
# Outline: as §1
# [7] = biological target: Neu5Ac(a2-8)Neu5Ac(a2-3)[GalNAc(b1-4)]Gal(b1-4)Glc
# Outline: as §1
# [8] = biological target: Neu5Ac(a2-8)Neu5Ac(a2-8)Neu5Ac
# Outline: as §1
# [9] = biological target: Neu5Ac(a2-8)Neu5Ac(a2-8)Neu5Ac(a2-3)Gal(b1-4)Glc
# Outline: as §1
# [10] = biological target: Neu5Ac(a2-8)Neu5Ac(a2-8)Neu5Ac(a2-3)[Gal(b1-3)GalNAc(b1-4)]Gal(b1-4)Glc
# Outline: as §1
# [11] = biological target: Neu5Ac(a2-8)Neu5Ac(a2-8)Neu5Ac(a2-3)[GalNAc(b1-4)]Gal(b1-4)Glc
# Outline: as §1
# [12] = biological target: Neu5Ac(a2-8)Neu5Ac(a2-8)Neu5Ac(a2-8)Neu5Ac(a2-3)[GalNAc(b1-4)]Gal(b1-4)Glc
# Outline: as §1
# [13] = biological target: Neu5Ac(a2-8)Neu5Gc(a2-3)Gal(b1-4)GlcNAc
# Outline: as §1
# [14] = biological target: Neu5Ac(b2-6)Gal(b1-4)GlcNAc
# Outline: as §1
# Neu5Ac(b2-6)GalNAc = biological target: Neu5Ac(b2-6)GalNAc
# Outline: as §1
# [15] = biological target: Neu5Ac9Ac(a2-3)Gal(b1-3)GlcNAc
# Outline: as §1
# [16] = biological target: Neu5Ac9Ac(a2-3)Gal(b1-4)GlcNAc
# Outline: as §1
# [17] = biological target: Neu5Ac9Ac(a2-6)Gal(b1-4)GlcNAc
# Outline: as §1
# [18] = biological target: Neu5Gc(a2-3)Gal(b1-3)GlcNAc
# Outline: as §1
# [19] = biological target: Neu5Gc(a2-3)Gal(b1-3)[Fuc(a1-4)]GlcNAc
# Outline: as §1
# Neu5Gc(a2-3)Gal(b1-4)Glc = biological target: Neu5Gc(a2-3)Gal(b1-4)Glc
# Outline: as §1
# [20] = biological target: Neu5Gc(a2-3)Gal(b1-4)GlcNAc
# Outline: as §1
# [21] = biological target: Neu5Gc(a2-3)Gal(b1-4)GlcNAc(b1-3)Gal(b1-4)GlcNAc(b1-2)Man(a1-3)[Neu5Gc(a2-3)Gal(b1-4)GlcNAc(b1-3)Gal(b1-4)GlcNAc(b1-2)Man(a1-6)]Man(b1-4)GlcNAc(b1-4)GlcNAc
# Outline: as §1
# [22] = biological target: Neu5Gc(a2-3)Gal(b1-4)[Fuc(a1-3)]GlcNAc
# Outline: as §1
# [23] = biological target: Neu5Gc(a2-6)Gal(b1-4)GlcNAc
# Outline: as §1
# Neu5Gc(a2-6)GalNAc = biological target: Neu5Gc(a2-6)GalNAc
# Outline: as §1
# [24] = biological target: Neu5Gc(a2-8)Neu5Ac(a2-3)Gal(b1-4)GlcNAc
# Outline: as §1
# [25] = biological target: Neu5Gc(a2-8)Neu5Gc(a2-3)Gal(b1-4)GlcNAc
# Outline: as §1
# [26] = biological target: Neu5Gc(a2-8)Neu5Gc(a2-3)Gal(b1-4)GlcNAc(b1-3)Gal(b1-4)GlcNAc
# Outline: as §1
# [27] = biological target: Neu5Gc(a2-8)Neu5Gc(a2-6)Gal(b1-4)GlcNAc
# Outline: as §1
# [28] = biological target: Neu5Gc(b2-6)Gal(b1-4)GlcNAc
# Outline: as §1
binder,measurement,setting,value
"CBP21 (Serratia marcescens), O83009 (protein) MNKTSRTLLSLGLLSAAMFGVSQQANAHGYVESPASRAYQCKLQLNTQCGSVQYEPQSVEGLKGFPQAGPADGHIASADKSTFFELDQQTPTRWNKLNLKTGPNSFTWKLTARHSTTSWRYFITKPNWDASQPLTRASFDLTPFCQFNDGGAIPAAQVTHQCNIPADRSGSHVILAVWDIADTANAFYQAIDVNLSK",glycan array binding signal (z-score),[1],-0.4
same,glycan array binding signal (z-score),Neu5Ac(a2-8)Neu5Ac,1.8
same,glycan array binding signal (z-score),[2],4
same,glycan array binding signal (z-score),[3],0.155
same,glycan array binding signal (z-score),[4],-0.726
same,glycan array binding signal (z-score),[5],-1.45
same,glycan array binding signal (z-score),[6],1.77
same,glycan array binding signal (z-score),[7],-1.38
same,glycan array binding signal (z-score),[8],0.577
same,glycan array binding signal (z-score),[9],-0.048
same,glycan array binding signal (z-score),[10],0.071
same,glycan array binding signal (z-score),[11],-1.01
same,glycan array binding signal (z-score),[12],-1.29
same,glycan array binding signal (z-score),[13],-1.4
same,glycan array binding signal (z-score),[14],-1.25
same,glycan array binding signal (z-score),Neu5Ac(b2-6)GalNAc,0.2
same,glycan array binding signal (z-score),[15],-0.399
same,glycan array binding signal (z-score),[16],0.285
same,glycan array binding signal (z-score),[17],-0.459
same,glycan array binding signal (z-score),[18],-0.236
same,glycan array binding signal (z-score),[19],0.155
same,glycan array binding signal (z-score),Neu5Gc(a2-3)Gal(b1-4)Glc,-0.615
same,glycan array binding signal (z-score),[20],-1
same,glycan array binding signal (z-score),[21],0.087
same,glycan array binding signal (z-score),[22],-0.274
same,glycan array binding signal (z-score),[23],0.755
same,glycan array binding signal (z-score),Neu5Gc(a2-6)GalNAc,-0.58
same,glycan array binding signal (z-score),[24],-0.645
same,glycan array binding signal (z-score),[25],-0.788
same,glycan array binding signal (z-score),[26],0.62
same,glycan array binding signal (z-score),[27],0.37
same,glycan array binding signal (z-score),[28],1.14

# A section from further up, as a working copy:
binder,measurement,setting,value
"CBP21 (Serratia marcescens), O83009 (protein) MNKTSRTLLSLGLLSAAMFGVSQQANAHGYVESPASRAYQCKLQLNTQCGSVQYEPQSVEGLKGFPQAGPADGHIASADKSTFFELDQQTPTRWNKLNLKTGPNSFTWKLTARHSTTSWRYFITKPNWDASQPLTRASFDLTPFCQFNDGGAIPAAQVTHQCNIPADRSGSHVILAVWDIADTANAFYQAIDVNLSK",glycan array binding signal (z-score),[19],0.155
same,glycan array binding signal (z-score),Neu5Gc(a2-3)Gal(b1-4)Glc,-0.615
